The list is a part of this screen's results and no random one: it is rich in T/C values a quarter to a half above the control, in often repeated tests (any T/C) and in doses without a T/C. Further doses and runs are listed elsewhere. T/C: endpoint of the treated group in % of that of the vehicle group. Some doses have a count of surviving animals in place of a T/C: the source holds a T/C of zero for them, seemingly a mark for toxic or unscored doses. Some survivor counts are full or nearly so, which does not show that the dose was tolerated: the source hardly ever lists a survival T/C far under the control, and the zero likely stands for such cases as well. Survivors were counted at the toxicity check, usually on the fifth day, unless a day is given; later deaths do not show. Schedules are NCI's codes, read here as Q, the interval in days (D) or hours (H), X, the number of doses. Some schedules carry Z or #; the key to these is not given. Some molecules as drawn cover several salts, stereoisomers or complexes of the source; a dose is that of the sample tested. Where survival is the endpoint, the PubChem record calls one and a half times the control and up active, and a quarter to a half above the control has no call in these data; cut-offs in other NCI protocols can differ. Some T/C values are followed by the survivors on the day toxicity was checked, most often the fifth; where none is given, no animal had died by that day. Some entries were tested several times; the results are listed from low to high.
Tested on: L1210 leukemia ip in BDF1 mice, survival T/C
Test: NCI In Vivo Anticancer Drug Screen. Data for tumor model L1210 Leukemia (intraperitoneal) in B6D2F1 (BDF1) mice
Settings: T/C endpoint: mean survival time, higher T/C = longer survival
[1] = dose: 200.0 mg/kg/injection, schedule: Q04DX003 (ip), vehicle: saline with Tween-80
[2] = dose: 400.0 mg/kg/injection, schedule: Q04DX003 (ip), vehicle: saline with Tween-80
[3] = dose: 100.0 mg/kg/injection, schedule: Q04DX002 (ip), vehicle: gum acacia
[4] = dose: 400.0 mg/kg/injection, schedule: Q04DX003 (ip), vehicle: saline
[5] = dose: 400.0 mg/kg/injection, schedule: Q01DX009 (ip), vehicle: saline
[6] = dose: 200.0 mg/kg/injection, schedule: Q01DX009 (ip), vehicle: saline
[7] = dose: 400.0 mg/kg/injection, schedule: Q01DX001 (ip), vehicle: saline
[8] = dose: 400.0 mg/kg/injection, schedule: Q01DX009 (ip), vehicle: saline with Tween-80
[9] = dose: 400.0 mg/kg/injection, schedule: Q04DX002 (ip), vehicle: saline with Tween-80
[10] = dose: 100.0 mg/kg/injection, schedule: Q04DX003 (ip), vehicle: saline with Tween-80
[11] = dose: 100.0 mg/kg/injection, schedule: Q04DX003 (ip), vehicle: saline
[12] = dose: 200.0 mg/kg/injection, schedule: Q04DX003 (ip), vehicle: saline

## CC1(C)Oc2ccccc2O1
[1]
  survivor count: 0 of 6
[2]
  survivor count: 0 of 6

## O=S(=O)(Sc1ccc(Cl)cc1)c1ccc(Cl)cc1
[3]
  survivor count: 3 of 3

## Cc1ccc(S(=O)(=O)OCC(CO)(CO)[N+](=O)[O-])cc1
[4]
  survivor count: 2 of 6

## COc1ccc2c3c1OC1C(O)CCC4C(C2)N(C)CCC341 (stereo unspecified)
dose: 400.0 mg/kg/injection, schedule: Q01DX001 (ip), vehicle: saline with Tween-80
  survivor count: 1 of 3

## CC(O)Cn1cnc2c1c(=O)n(C)c(=O)n2C (stereo unspecified)
[5]
  survivor count: 6 of 6

## CC(O)CN1CCCCC1 (stereo unspecified)
dose: 400.0 mg/kg/injection, schedule: Q01DX001 (ip), vehicle: other
  survivor count: 2 of 4
[2]
  survivor count: 0 of 3

## COc1ccc2c(=O)c3ccccc3ncc2c1
dose: 100.0 mg/kg/injection, schedule: Q01DX009 (ip), vehicle: saline
  survivor count: 5 of 6
[6]
  survivor count: 0 of 6
[5]
  survivor count: 0 of 6

## NC(=S)N/N=C/c1ccc(Br)s1
dose: 400.0 mg/kg/injection, schedule: Q01DX001 (ip), vehicle: carboxymethylcellulose (CMC)
  survivor count: 1 of 4

## CCN(CC)CCN(C)C(=O)C(c1ccccc1)c1ccccc1
[4]
  survivor count: 1 of 6

## CC(=O)OC1COC(NC(=O)NNc2ccccc2)C(OC(C)=O)C1OC(C)=O (stereo unspecified)
[5]
  survivor count: 6 of 6

## O=C(NC(=O)C(Cl)Cl)OC1c2cc(Cl)ccc2-c2c(Cl)cc(Cl)cc21 (stereo unspecified)
dose: 400.0 mg/kg/injection, schedule: Q01DX009 (ip), vehicle: Klucel (hydroxypropylcellulose) (HPC)
  survivor count: 3 of 6

## COc1ccc(/C=C(\SS/C(=C/c2ccc(OC)cc2)C(=O)O)C(=O)O)cc1
[7]
  survivor count: 0 of 4

## CCCCCCCC/C=C/CCCCCCCCNC(=O)NCCCl
[8]
  survivor count: 6 of 6

## CCOP(=O)(OCC)OC(=C(Cl)Cl)C(Cl)(Cl)Cl
[9]
  survivor count: 0 of 3

## CC(=O)Oc1cc(C(C)=O)c(O)c2ccccc12
dose: 400.0 mg/kg/injection, schedule: Q01DX001 (ip), vehicle: water
  survivor count: 0 of 6

## CCCCCCCCCCC[n+]1cccc(C#N)c1
dose: 75.0 mg/kg/injection, schedule: Q01DX001 (ip), vehicle: saline
  survivor count: 1 of 6
dose: 150.0 mg/kg/injection, schedule: Q01DX001 (ip), vehicle: saline
  survivor count: 0 of 6
dose: 300.0 mg/kg/injection, schedule: Q01DX001 (ip), vehicle: saline
  survivor count: 0 of 6

## C[C@@H]1CN(C(=O)CCOS(C)(=O)=O)[C@@H](C)CN1C(=O)CCOS(C)(=O)=O
dose: 8.4 mg/kg/injection, schedule: Q01DX Z (ip), vehicle: carboxymethylcellulose (CMC)
  T/C: 132 % of control
dose: 12.6 mg/kg/injection, schedule: Q01DX Z (ip), vehicle: carboxymethylcellulose (CMC)
  T/C: 125 % of control
dose: 19.0 mg/kg/injection, schedule: Q01DX Z (ip), vehicle: carboxymethylcellulose (CMC)
  T/C: 135 % of control
dose: 29.0 mg/kg/injection, schedule: Q01DX Z (ip), vehicle: carboxymethylcellulose (CMC)
  T/C: 127 and 144 % of control
dose: 29.5 mg/kg/injection, schedule: Q01DX Z (ip), vehicle: carboxymethylcellulose (CMC)
  T/C: 125 % of control
dose: 60.3 mg/kg/injection, schedule: Q01DX Z (ip), vehicle: carboxymethylcellulose (CMC)
  T/C: 132 and 147 % of control
dose: 88.0 mg/kg/injection, schedule: Q01DX Z (ip), vehicle: carboxymethylcellulose (CMC)
  T/C: 139 % of control
dose: 90.0 mg/kg/injection, schedule: Q01DX Z (ip), vehicle: carboxymethylcellulose (CMC)
  T/C: 121, 148 [4 of 6 alive], 159, 168 % of control
dose: 135.0 mg/kg/injection, schedule: Q01DX Z (ip), vehicle: carboxymethylcellulose (CMC)
  T/C: 103, 112, 119, 165, 191, 201 % of control
dose: 200.0 mg/kg/injection, schedule: Q01DX Z (ip), vehicle: carboxymethylcellulose (CMC)
  T/C: 137 % of control
dose: 302.0 mg/kg/injection, schedule: Q01DX Z (ip), vehicle: carboxymethylcellulose (CMC)
  survivor count: 5 of 6
dose: 450.0 mg/kg/injection, schedule: Q01DX Z (ip), vehicle: carboxymethylcellulose (CMC)
  survivor count: 6 of 6
dose: 675.0 mg/kg/injection, schedule: Q01DX Z (ip), vehicle: carboxymethylcellulose (CMC)
  survivor count: 6 of 6

## Clc1ccc2c(c1)C1c3ccccc3C2C2c3ccccc3C1c1ccccc12 (stereo unspecified)
dose: 100.0 mg/kg/injection, schedule: Q04DX002 (ip), vehicle: Klucel (hydroxypropylcellulose) (HPC)
  survivor count: 3 of 3

## COc1cccc(C(=O)C=C(C(F)(F)F)C(F)(F)F)c1
[10]
  survivor count: 2 of 6
[1]
  survivor count: 4 of 6
[2]
  survivor count: 0 of 6

## CC(CSc1ccccc1)NCCO (stereo unspecified)
[1]
  survivor count: 0 of 6
[2]
  survivor count: 0 of 6

## COC(=O)c1ccccc1NC(=O)Nc1ccccc1Cl
dose: 200.0 mg/kg/injection, schedule: Q01DX009 (ip), vehicle: Klucel (hydroxypropylcellulose) (HPC)
  survivor count: 6 of 6
dose: 400.0 mg/kg/injection, schedule: Q04DX003 (ip), vehicle: Klucel (hydroxypropylcellulose) (HPC)
  survivor count: 6 of 6

## O=C(O)c1cccc2[nH]c(=O)oc(=O)c12
[8]
  survivor count: 6 of 6

## O=C1NC(=S)S/C1=C\c1ccc(F)cc1
[10]
  survivor count: 0 of 3
[1]
  survivor count: 0 of 3
[2]
  survivor count: 0 of 3

## COc1ccccc1C(=O)OCC(=O)c1ccc(-c2ccccc2)cc1
dose: 100.0 mg/kg/injection, schedule: Q01DX001 (ip), vehicle: saline
  survivor count: 4 of 4

## CCCCCCCCCCCCOc1ccccc1
[2]
  survivor count: 6 of 6

## C=CCn1c2c(c3ccccc31)CCC2
dose: 200.0 mg/kg/injection, schedule: Q01DX009 (ip), vehicle: saline with Tween-80
  survivor count: 1 of 3

## Cc1c([N+](=O)[O-])cc(C(C)(C)C)c(OC(=O)c2ccccc2)c1[N+](=O)[O-]
[9]
  survivor count: 3 of 3

## C=C1CC(CCCC2CC(=C)C(=O)O2)OC1=O (stereo unspecified)
dose: 400.0 mg/kg/injection, schedule: Q04DX002 (ip), vehicle: saline
  survivor count: 1 of 3

## NCCCC1C2CCC(C2)C1CN (stereo unspecified)
dose: 200.0 mg/kg/injection, schedule: Q04DX002 (ip), vehicle: alcohol
  survivor count: 0 of 3
dose: 400.0 mg/kg/injection, schedule: Q04DX002 (ip), vehicle: alcohol
  survivor count: 0 of 3

## CCNCCC#N
[5]
  survivor count: 5 of 6

## NCCCCCc1ccccc1
[11]
  survivor count: 3 of 6
[12]
  survivor count: 0 of 6

## CCCC[N+](CCCC)(CCCC)Cc1ccccc1
[11]
  survivor count: 0 of 6
[12]
  survivor count: 0 of 6
[4]
  survivor count: 0 of 6

## NC(N)=NC1CCCCC1
[4]
  survivor count: 2 of 4

## CCC1NC(C)(C)CC1=C(C)C (stereo unspecified)
dose: 100.0 mg/kg/injection, schedule: Q04DX003 (ip), vehicle: saline sonified
  survivor count: 0 of 6
dose: 200.0 mg/kg/injection, schedule: Q04DX003 (ip), vehicle: saline sonified
  survivor count: 0 of 6
dose: 400.0 mg/kg/injection, schedule: Q04DX003 (ip), vehicle: saline sonified
  survivor count: 0 of 6

## CCC1C(CC)N1S(=O)(=O)c1ccccc1 (stereo unspecified)
[9]
  survivor count: 3 of 3

## NC(CSCc1ccccc1)CSCc1ccccc1
[6]
  survivor count: 0 of 6

## COc1cc(OC)c(OC)cc1/C=C\c1ccnc2ccccc12
dose: 3200.0 mg/kg/injection, schedule: Q04DX003 (ip), vehicle: Klucel (hydroxypropylcellulose) (HPC)
  survivor count: 3 of 6

## CSC(Cl)=C(Cl)Cl
dose: 200.0 mg/kg/injection, schedule: Q01DX001 (ip), vehicle: saline
  survivor count: 1 of 6
[7]
  survivor count: 0 of 6

## C[CH2][Sn]([I])([CH2]C)[CH2]C
dose: 50.0 mg/kg/injection, schedule: Q04DX002 (ip), vehicle: gum acacia
  survivor count: 2 of 3
[3]
  survivor count: 1 of 3
dose: 100.0 mg/kg/injection, schedule: Q04DX002 (ip), vehicle: saline with Tween-80
  survivor count: 0 of 3
dose: 200.0 mg/kg/injection, schedule: Q04DX002 (ip), vehicle: gum acacia
  survivor count: 1 of 3
dose: 200.0 mg/kg/injection, schedule: Q04DX002 (ip), vehicle: saline with Tween-80
  survivor count: 0 of 3
dose: 400.0 mg/kg/injection, schedule: Q04DX002 (ip), vehicle: gum acacia
  survivor count: 0 of 3
[9]
  survivor count: 0 of 3
